The whole screen tested about 580,000 compounds, of which about 6,100 (1.1%) were called active. Inconclusive means that the source gave no clear call. Such entries were picked first, then a sample of the others. The call rests on the fitted dose curve; in most records, active means well fitted inhibition curve with a large enough effect; inconclusive means small, poorly fitted or top-dose-only effect, or another doubt; inactive means no such curve, though single readings can be large or run the other way. Where the call is inconclusive, the potency comes from a doubtful curve fit.
What follows are compounds tested against Polyunsaturated fatty acid lipoxygenase ALOX12 (Homo sapiens) (UniProt P18054) (assay: Primary qHTS assay for inhibitors of human arachidonate 12S-lipoxygenase (ALOX12): Round 2). Conditions: purified 12hLO, xylenol orange hydroperoxide absorbance; activity change, negative = inhibition: at 108 µM (top of the series) unless noted.
Method in brief: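 Purified human 12hLO (150 nM final) in 25 mM Hepes, 0.01% Triton X-100, pH 7.0 was preincubated 15 min at room temperature with compound. Then 40 uM arachidonic acid was added, 30 min. Hydroperoxide was read by Fe-XO absorbance ratio 573/405 nm.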
On the % scale 0 is the no-effect control and ±100 the full control effect; potency means the concentration at half of the fitted maximal effect.

Amino acid sequences for entries named in this document (tags omitted). A change or cut given only in a name is not applied to a line headed by its entry.
UniProt P18054: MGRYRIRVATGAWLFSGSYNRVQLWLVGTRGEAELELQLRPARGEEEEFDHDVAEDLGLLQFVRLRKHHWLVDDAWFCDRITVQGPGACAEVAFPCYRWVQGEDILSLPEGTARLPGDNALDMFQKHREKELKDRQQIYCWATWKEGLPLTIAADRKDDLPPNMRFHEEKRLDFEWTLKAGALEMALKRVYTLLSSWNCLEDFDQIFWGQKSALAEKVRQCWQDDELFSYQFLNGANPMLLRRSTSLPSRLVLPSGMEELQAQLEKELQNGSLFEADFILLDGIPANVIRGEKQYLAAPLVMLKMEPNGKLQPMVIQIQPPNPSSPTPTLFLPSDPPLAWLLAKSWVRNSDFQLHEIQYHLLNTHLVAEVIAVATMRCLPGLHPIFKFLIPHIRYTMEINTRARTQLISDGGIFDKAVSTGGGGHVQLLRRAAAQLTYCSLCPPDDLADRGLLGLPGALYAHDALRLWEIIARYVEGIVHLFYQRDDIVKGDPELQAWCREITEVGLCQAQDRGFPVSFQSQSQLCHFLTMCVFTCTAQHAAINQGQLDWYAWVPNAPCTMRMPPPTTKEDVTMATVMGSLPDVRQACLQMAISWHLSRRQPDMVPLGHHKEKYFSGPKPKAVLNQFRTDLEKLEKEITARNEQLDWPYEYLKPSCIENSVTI

| SMILES | Potency | activity change, negative = inhibition |
| --- | --- | --- |
| CC(C)(C)NC(=O)C(c1ccc(O)cc1)N(C(=O)Cn1nnc(-c2ccc(F)cc2)n1)c1ccccc1F (centres undefined) | inactive | – |
| O=C(Nc1ccccc1N1CCCC1)c1ccc(Br)o1 | inconclusive: 44.7 µM [inhibitor, partial curve, poor fit] | – |
| COC(=O)c1ccc(NC(=O)c2cc(-c3cc(C)sc3C)nc3onc(C)c23)cc1 | inconclusive: 89.1 µM [inhibitor, single point] | – |
| O=S(=O)(/N=C(\c1ccccc1)N1CCOCC1)c1cccs1 | inactive | – |
| O=C(O)CCCC(=O)N[C@H]1CO[C@H]2[C@@H]1OC[C@@H]2Nc1nccc(-c2ccc3c(c2)OCO3)n1 | inconclusive: 17.8 µM [inhibitor, full curve] | – |
| O=C(CSc1nnc(-c2cccnc2)n1-c1ccc(F)cc1)NCc1ccc2c(c1)OCO2 | inactive | – |
| COc1ccccc1-c1noc(CSc2nc3ccccc3o2)n1 | inactive | – |
| C#CCOCCOCCOCCNc1nc(N2CCN(C(=O)[C@H]([C@@H](C)O)n3cc(CCCCN)nn3)CC2)nc(N2CCN(C(=O)[C@H]([C@@H](C)CC)n3cc(CCCCN)nn3)CC2)n1 | inconclusive: 14.1 µM [inhibitor, full curve] | – |
| CCOc1cc(N2CCOCC2)c(OCC)cc1NC(=O)CN1C(=O)NC2(CCCCC2)C1=O | inconclusive: 50.1 µM [inhibitor, partial curve, poor fit] | – |
| Cc1cccc(NC(=S)NCc2cccs2)c1 | inconclusive: 50.1 µM [inhibitor, partial curve, poor fit] | – |
| Cc1ccc(O)c(N=Cc2ccc(C)s2)c1 | inconclusive: 50.1 µM [inhibitor, partial curve, poor fit] | – |
| Cc1ccccc1-c1cc2nc(Nc3ccc(F)cc3)n(C)c(=O)c2s1 | inconclusive: 50.1 µM [inhibitor, partial curve, poor fit] | – |
| COc1cc(/C=C(/C#N)C(=O)Nc2ccc(C)cc2)ccc1Oc1nc(Cl)ncc1F | inactive | – |
| Cc1nc2cc(C(=O)Nc3ccc(N(C)C)cc3)ccc2n1-c1ccccc1 | inconclusive: 3.16 µM [inhibitor, full curve, poor fit] | – |
| CC(C)(C)[C@H]1COC(=O)[C@H](NC(=O)OCC2c3ccccc3-c3ccccc32)C/C=C\C[C@@H](CC(=O)N(CCO)Cc2ccccc2)C(=O)N1 | inconclusive: 89.1 µM [inhibitor, partial curve, poor fit] | – |
| CCN1CCN(C(=S)c2ccc(O)cc2)CC1 | inconclusive: 44.7 µM [inhibitor, partial curve, poor fit] | – |
| CCN(CC)C(=O)Oc1cc2c(-c3cc4cccc(OC)c4o3)cc(=O)oc2cc1C | inactive | – |
| O=C(Cc1ccc(Cl)cc1)Nc1cccc(-c2nnc(-c3ccco3)o2)c1 | inactive | – |
| CCn1cc(CN(C)C(=O)[C@H]2CN(Cc3ccccc3)C[C@H]2C(=O)O)c(C)n1 | inconclusive: 22.4 µM [inhibitor, full curve] | – |
| CC(=O)c1ccc(-c2cccc(Cl)c2Cl)o1 | inconclusive: 100 µM [inhibitor, single point] | – |
| Cc1ccsc1C(=O)N/N=C/C=C/c1ccccc1[N+](=O)[O-] | inactive | – |
| COC(=O)c1ccc2c(=O)n(Cc3ccc(C(=O)NCCCN4CCC(C)CC4)cc3)c(=S)[nH]c2c1 | inconclusive: 70.8 µM [inhibitor, single point] | – |

Single records (already shown):
`COc1cc(/C=C(/C#N)C(=O)Nc2ccc(C)cc2)ccc1Oc1nc(Cl)ncc1F` is listed with Potency: inactive
`COC(=O)c1ccc(NC(=O)c2cc(-c3cc(C)sc3C)nc3onc(C)c23)cc1` is listed with Potency: inconclusive: 89.1 µM [inhibitor, single point]

Later entries.

| SMILES | Potency | activity change, negative = inhibition |
| --- | --- | --- |
| CC1CCC2(CCc3cc4c5c(c(=O)oc4cc3O2)CCC5)CC1 (centres undefined) | inconclusive: 35.5 µM [inhibitor, single point] | – |
| CC(C)(C)CC(=O)Nc1ccc(C(N)=O)c(Cl)c1 | – | inconclusive: -49.8% [inhibitor] |
| CCOC(=O)N1CCN(C(=O)C2CCN(Cc3ccc(O)c(OCC)c3)CC2)CC1 | inconclusive: 1.58 µM [inhibitor, full curve] | – |
| COc1cccc(N2CC(NC(=O)Cc3cccs3)CC2=O)c1 (centres undefined) | inconclusive: 63.1 µM [inhibitor, partial curve, poor fit] | – |
| Cc1cnc(C(=O)N(C)Cc2ccc(Br)o2)cn1 | inactive | – |
| CN1C(=O)CC(=O)N(C)c2cc(S(=O)(=O)N(C)Cc3ccccc3)ccc21 | inconclusive: 11.2 µM [inhibitor, full curve, poor fit] | – |
| O=C(c1ccc(F)cc1)N1CCN2C(=O)c3ccccc3C12c1ccc(Cl)cc1 (centres undefined) | inactive | – |
| O=C1CC(NS(=O)(=O)c2cccs2)CN1c1cccc(F)c1 (centres undefined) | inconclusive: 100 µM [inhibitor, partial curve, poor fit] | – |
| CCCc1cc2c(=O)c(-c3nc4ccccc4s3)c(COCC(=O)O)oc2cc1O | inconclusive: 44.7 µM [inhibitor, partial curve, poor fit] | – |
| Cc1ccc(S(=O)(=O)CCC(=O)OCC(=O)NC2CCCC2)cc1 | inactive | – |
| COc1cccc(NC(=O)CN(C)C(=O)c2cccc(S(=O)(=O)Nc3ccc(C)cc3)c2)c1 | inconclusive: 44.7 µM [inhibitor, partial curve, poor fit] | – |
| CCN(Cc1cc(=O)n2cc(Cl)c(C)c(Cl)c2n1)Cc1nc2ccccc2c(=O)[nH]1 | inconclusive: 50.1 µM [inhibitor, partial curve, poor fit] | – |
| Cc1c(Cl)cccc1NS(=O)(=O)c1ccc2[nH]cc(C(=O)NC3CCCC3)c(=O)c2c1 | inconclusive: 12.6 µM [inhibitor, full curve, poor fit] | – |
| CN(C(=O)c1ccc(Br)o1)C1CCS(=O)(=O)C1 (centres undefined) | inactive | – |
| O=C(NCC(c1ccco1)N1CCCC1)c1cccc(S(=O)(=O)N2CCCCC2)c1 (centres undefined) | inactive | – |
| Cc1ccsc1/C=C1\Oc2cc(OC(=O)c3ccco3)ccc2C1=O | inconclusive: 39.8 µM [inhibitor, partial curve, poor fit] | – |
| Cc1ccc(S(=O)(=O)C(CCC(=O)N2CCOCC2)S(=O)(=O)c2ccc(C)cc2)cc1 | inactive | – |
| O=C(COC(=O)c1ccccc1C(=O)c1ccccc1)NCc1ccc(F)cc1 | inconclusive: 100 µM [inhibitor, single point] | – |
| CC(=O)OCc1ccc(C(=O)O)cc1 | inactive | – |
| Cc1ccc(S(=O)(=O)c2nc(-c3cccs3)oc2N2CCCCC2)cc1 | inconclusive: 56.2 µM [inhibitor, partial curve, poor fit] | – |
| Cc1ccc(-n2ncc(C(=O)NCCN3CCN(C)CC3)c2C2CCN(C(=O)OC(C)(C)C)CC2)c(C)c1 | inconclusive: 70.8 µM [inhibitor, partial curve, poor fit] | – |
| CCOc1ccc(Nc2nc(-c3c[nH]c(C(=O)N4CCCC4)c3)cs2)cc1 | inconclusive: 39.8 µM [inhibitor, full curve, poor fit] | – |

| SMILES | Potency | activity change, negative = inhibition |
| --- | --- | --- |
| CCC(Sc1nc2nccnc2c(=O)n1Cc1ccccc1)C(=O)Nc1cc(C)ccc1OC (centres undefined) | inconclusive: 50.1 µM [inhibitor, partial curve, poor fit] | – |
| Cc1ccc(OCc2nnc(SCC(=O)O)n2-c2ccccc2)cc1 | inconclusive: 44.7 µM [inhibitor, partial curve] | – |
| O=C(NCc1ccco1)c1cc(-c2ccccc2)nc2ccccc12 | inactive | – |
| CC(C)(C)C(=O)[C@@H]1[C@@H](C(=O)c2ccccn2)[C@@]2(C(=O)Nc3ccccc32)[C@H]2c3ccccc3C=CN12 | inconclusive: 3.98 µM [inhibitor, full curve, poor fit] | – |
| COC[C@H]1CCCN1C(=O)C[C@@H]1O[C@H](CNC(=O)c2ccco2)[C@@H](O)[C@H]1O | inconclusive: 14.1 µM [inhibitor, full curve] | – |
| COCCN(C(=O)CSc1n[nH]c(-c2ccccc2)n1)c1c(N)n(CC(C)C)c(=O)[nH]c1=O | inconclusive: 89.1 µM [inhibitor, partial curve, poor fit] | – |
| Cc1ccc(-c2nc(CSc3nc4ncccc4[nH]3)c(C)o2)cc1 | inactive | – |
| COc1ccccc1NC(=O)C(=O)NCCC1CCCCN1S(=O)(=O)c1ccc(F)cc1 (centres undefined) | inconclusive: 112 µM [inhibitor, partial curve, poor fit] | – |
| N#CC1(C(=O)Nc2cnc3ccccc3c2)CCCC1 | inactive | – |
| CCC(C(=O)NCCc1c[nH]c2ccc(C)cc12)c1ccccc1 (centres undefined) | inconclusive: 89.1 µM [inhibitor, single point] | – |
| CCOc1cc(/C=C(/C#N)c2ccc(F)cc2)cc(Cl)c1OCc1ccccc1C#N | inactive | – |
| CC1=C(C(=O)OC(C)(C)C)C(c2cccc(F)c2)C(C#N)=C(N)O1 (centres undefined) | inconclusive: 11.2 µM [inhibitor, full curve] | – |
| CCC(=O)N1CC2(CN(C(=O)NC(C)C)C2)c2c(n(C)c3cc(OC)ccc23)[C@H]1CO | inconclusive: 100 µM [inhibitor, single point] | – |
| O=S(=O)(c1ccc(Br)cc1)c1nc(-c2ccco2)oc1SCc1ccccc1Cl | inconclusive: 44.7 µM [inhibitor, partial curve, poor fit] | – |
| CN(C)CCN(C)CC[C@H]1CN(C(=O)C(C)(C)C)CC[C@H]1CC(=O)O | inconclusive: 31.6 µM [inhibitor, single point] | – |
| CCOc1ccc(NC(=O)CSc2nccn2Cc2ccccc2OC)cc1 | inactive | – |
| CCCCCCSC1=C(C#N)C(=O)NC2(CCCCC2)S1 | active: 44.7 µM | – |
| CCCCOc1ccc(CNC(=O)CN2CCSc3ccccc32)cc1 | inconclusive: 44.7 µM [inhibitor, partial curve, poor fit] | – |
| O=C1CC(c2ccccc2)N(C(=O)CNC(=O)Nc2ccccc2)CCCCCN1 (centres undefined) | inactive | – |
| N#Cc1ccc(Oc2ccc(C(F)(F)F)cc2NC(=O)c2ccc(F)cc2)cc1 | inconclusive: 126 µM [inhibitor, single point] | – |

2 of the compounds above, as comma-separated lines:
SMILES,Potency,"activity change, negative = inhibition"
COc1ccccc1NC(=O)C(=O)NCCC1CCCCN1S(=O)(=O)c1ccc(F)cc1 (centres undefined),"inconclusive: 112 µM [inhibitor, partial curve, poor fit]",–
N#CC1(C(=O)Nc2cnc3ccccc3c2)CCCC1,inactive,–
